Binding data for 11 molecules are collected here from article PMC8610266.

Results are given in words; binding and its absence hold for the method and conditions named. Some results given as binding are weak or reduced against the parent protein; the word gives no strength. Sequences can lack the tags named with a protein.

In the assay the target is T1, Nog1-TAP (LSU biogenesis factor Nog1 chromosomally encoded in fusion with a tandem affinity purification tag) (S. cerevisiae) (UniProt Q02892).
T1 sequence: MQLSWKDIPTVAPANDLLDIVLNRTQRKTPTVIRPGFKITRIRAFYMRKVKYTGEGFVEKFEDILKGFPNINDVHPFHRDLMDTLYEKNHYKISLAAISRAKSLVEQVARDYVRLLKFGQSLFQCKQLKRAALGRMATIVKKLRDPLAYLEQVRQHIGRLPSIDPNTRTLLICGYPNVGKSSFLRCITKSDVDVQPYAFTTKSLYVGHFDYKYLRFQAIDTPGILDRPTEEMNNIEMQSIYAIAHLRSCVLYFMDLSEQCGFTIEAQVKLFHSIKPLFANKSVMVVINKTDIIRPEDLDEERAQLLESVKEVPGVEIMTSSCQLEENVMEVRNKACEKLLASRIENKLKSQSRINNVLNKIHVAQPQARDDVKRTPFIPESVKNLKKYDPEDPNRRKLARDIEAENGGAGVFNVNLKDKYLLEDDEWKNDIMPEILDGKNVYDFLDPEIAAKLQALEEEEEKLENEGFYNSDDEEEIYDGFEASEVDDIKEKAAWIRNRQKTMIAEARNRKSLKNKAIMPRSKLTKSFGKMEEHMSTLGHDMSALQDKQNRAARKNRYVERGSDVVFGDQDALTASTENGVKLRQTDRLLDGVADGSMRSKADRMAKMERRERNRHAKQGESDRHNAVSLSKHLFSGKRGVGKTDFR
In words: cryo-EM structure; LSU precursor particles (with pre-rRNA) associated with TAP tagged Nog1, purified in one step on rabbit IgG magnetic beads from yeast extract in buffer A200 (200 mM potassium chloride, 20 mM Tris pH8, 5 mM magnesium acetate), eluted with TEV protease; single particle cryo-EM, maps of sub-nanometre resolution, models by flexible fitting of published models; control strain Y1877 and strains with expression of rpL2, rpL25 or rpL34 shut down for 4 h in glucose.

B1: Rrp1 (protein, UniProt P35178 1-278)
chain: METSNFVKQLSSNNRKTRVNALEALKKYLTAKQFKENKQIEFNKLWKGLYYAMWFSDRPRPQQRLANELGELHGLYFDPKDNSTADELTTNDKAFIKFSRGFWKVMCFEWFNIDRYRLDKYLLLIRRVLFSQLKYLQSRNWDKKLVDEYIKKVLRWLPLSGSPKVYTGIPIHIVDILLDEWERLLKDGDEDDEDEENKEEEMRKIAESAKKTPLADVIAIFQDIVADYNNSKVLREKIKEDLFSDTRLVSWDILEGETQHNDSSNESEEEEEEEWKGF
For B1, the binding result is listed as “binds”.

B2: Ytm1 (protein, UniProt Q12024 1-460)
chain: MTEDKSQVKIRFFTREKDELLHVQDTPMYAPISLKRYGLSEIVNHLLGSEKPVPFDFLIEGELLRTSLHDYLTKKGLSSEASLNVEYTRAILPPSYLNSFSNEDWVSSLDVGDGSKHIISGSYDGIVRTWDLSGNVQKQYSGHSGPIRAVKYISNTRLVSAGNDRTLRLWKTKNDDLKLTSQQQAQEDDDDEVNIEDGKTLAILEGHKAPVVSIDVSDNSRILSASYDNSIGFWSTIYKEMTVVDPLEDINNPNNKISTAARKRRKLTMKDGTIRRRAPLSLLESHTAPVEQVIFDSTDNTVGYSVSQDHTIKTWDLVTARCIDTRTTSYSLLSIAQLSTLNLLACGSSARHITLHDPRVGASSKVTQQQLIGHKNFVSSLDTCPENEYILCSGSHDGTVKVWDVRSTSPMYTITREDKSVQKGVNDKVFAVKWAEKVGIISAGQDKKIQINKGDNIFKN
On to B2, for which the binding entry is “binds”.

B3: Cgr1 (protein, UniProt P53188 1-120)
chain: MVNETGESQKAAKGTPVSGKVWKAEKTPLRAKSRVVKNKKLTSWELKKQKRLEDKQFKERLKALKDEKEEARQAKITMLKERREKKEENERYERLAAKMHAKKVERMRRREKRNKALKER
With B3, the binding entry is on record as “binds”.

B4: Nsa1 (protein, UniProt P53136 1-463)
chain: MRLLVSCVDSGSIKEVLCNIGTDTSVQSALQPFHVAPHLAEGLKAYVDRMWVISEDEAILARNSGVVELVKISKHLKENEALQVDPKGESKNEKSLSDDLPKFDISEFEITSSVSDLFDDAKLESLSSKSVKRTKLVDGFVTLCPIKKDSSNNTFVAATKSGLLHIIKKGEDKKLIKLASLGLKAPVEFLQLYDLEDTDTDKYIFAYGGEENLIKLVEIDSSFQSLKQIWEAKNVKNDRLDMRVPVWPMALRFLEPSPGKTEKGKLNYQFAAITRWSHLTKYSTQHGRKPFAQIDLLPNREPLSQMEVFDAKGENVVSSLGNFQSETFNELNVITTDYKKNVFKFDGNGRMLGKVGRDDITGSSTYIHVHDGKYLLQGGLDRYVRIFDIKTNKMLVKVYVGSRINFIVMLDDVEIEMPLSPSAKAAKGKQKRKVTELEEDADELWNKLEGKVAASKASKKSKI
In the case of B4, the binding result is “binds”.

B5: rpL5 (protein, UniProt P26321 1-297)
chain: MAFQKDAKSSAYSSRFQTPFRRRREGKTDYYQRKRLVTQHKAKYNTPKYRLVVRFTNKDIICQIISSTITGDVVLAAAYSHELPRYGITHGLTNWAAAYATGLLIARRTLQKLGLDETYKGVEEVEGEYELTEAVEDGPRPFKVFLDIGLQRTTTGARVFGALKGASDGGLYVPHSENRFPGWDFETEEIDPELLRSYIFGGHVSQYMEELADDDEERFSELFKGYLADDIDADSLEDIYTSAHEAIRADPAFKPTEKKFTKEQYAAESKKYRQTKLSKEERAARVAAKIAALAGQQ
Take B5: the binding result is recorded as “binds”.

B6: Ebp2 (protein, UniProt P36049 1-427)
chain: MAKGFKLKELLSHQKEIEKAEKLENDLKKKKSQELKKEEPTIVTASNLKKLEKKEKKADVKKEVAADTEEYQSQALSKKEKRKLKKELKKMQEQDATEAQKHMSGDEDESGDDREEEEEEEEEEEGRLDLEKLAKSDSESEDDSESENDSEEDEDVVAKEESEEKEEQEEEQDVPLSDVEFDSDADVVPHHKLTVNNTKAMKHALERVQLPWKKHSFQEHQSVTSETNTDEHIKDIYDDTERELAFYKQSLDAVLVARDELKRLKVPFKRPLDYFAEMVKSDEHMDKIKGKLIEEASDKKAREEARRQRQLKKFGKQVQNATLQKRQLEKRETLEKIKSLKNKRKHNEIDHSEFNVGVEEEVEGKRFDRGRPNGKRAAKNAKYGQGGMKRFKRKNDATSSADVSGFSSRKMKGKTNRPGKSRRARRF
On to B6, for which the binding result is “binds”.

B7: Brx1 (protein, UniProt Q08235 1-291)
chain: MSSIYKALAGKSKDNKSEKKQGNVKQFMNKQRTLLISSRGVNYRHRHLIQDLSGLLPHSRKEPKLDTKKDLQQLNEIAELYNCNNVLFFEARKHQDLYLWLSKPPNGPTIKFYIQNLHTMDELNFTGNCLKGSRPVLSFDQRFESSPHYQLIKELLVHNFGVPPNARKSKPFIDHVMSFSIVDDKIWVRTYEISHSTKNKEEYEDGEEDISLVEIGPRFVMTVILILEGSFGGPKIYENKQYVSPNVVRAQIKQQAAEEAKSRAEAAVERKIKRRENVLAADPLSNDALFK
B7: the binding result is “binds”.

B8: Rpf1 (protein, UniProt P38805 1-295)
chain: MALGNEINITNKLKRQEIFADIKHEKNKERHTMRRKRAKEERENPELREQRLKENVTQTIENTRVYDETINKEVEGDEDDLMRYFNSNSNEPPKIFLTTNVNAKKSAYEFANILIEILPNVTFVKRKFGYKLKEISDICIKRNFTDIVIINEDKKKVTGLTFIHLPEGPTFYFKLSSFVEVKKIVGHGRPTSHIPELILNNFQTRLGQTVGRLFQSILPQNPDIEGRQVITLHNQRDYIFFRRHRYVFKDNERVGLQELGPQFTLKLKRLQRGIKEETEWEHKPEMDKEKKKFYL
B8: the binding entry was “binds”.

B9: Cic1 (protein, UniProt P38779 1-376)
chain: MAKKSNSKKSTPVSTPSKEKKKVIEKKSSTAIPRERVIKAVNELIKFTSKPQDENNEEGNNGKKNLLEDDEEELKKDLQLIVVNNKSFTGTSKSFKLKLLNVKHSFYKPWKEASATAVKDFKVLLILKDSDIKKVSEDDLFDQLDSEGIKVDEIICGKDLKTVYKAYEARNAFISQFSLILADDSIVTSLPKLMGGKAYNKVETTPISIRTHANKEFSLTTLTNNIKKVYMNQLPVKLPRGTTLNVHLGNLEWLRPEEFVDNVELISEQLIKAYQIRSIFIKTNRSPVLPLYYNQDVLDELEAKKDKIEETHEDDMVTIDGVQVHLSTFNKGLMEIANPSELGSIFSKQINNAKKRSSSELEKESSESEAVKKAKS
For B9, the binding entry is “binds”.

B10: Mak16 (protein, UniProt P10962 1-306)
chain: MSDEIVWQVINQSFCSHRIKAPNGQNFCRNEYNVTGLCTRQSCPLANSKYATVKCDNGKLYLYMKTPERAHTPAKLWERIKLSKNYTKALQQIDEHLLHWSKFFRHKCKQRFTKLTQVMITERRLALREEERHYVGVAPKVKRREQNRERKALVAAKIEKAIEKELMDRLKSGAYGDKPLNVDEKVWKKIMGQMEEENSQDEEEDWDEEEESDDGEVEYVADDGEGEYVDVDDLEKWLADSDREASSASESESDSESESDSDSDEENKNSAKRRKKGTSAKTKRPKVEIEYEEEHEVQNAEQEVAQ
Regarding B10, the binding entry was “binds”.

B11: Rlp7 (protein, UniProt P40693 1-322)
chain: MSSTQDSKAQTLNSNPEILLRKRRNADRTRIERQELAKKKREEQIKKKRSNKNKFVRAESIVAKTLATSREKERIKRVSILEDKKAKNETQHIASGKDFILKITEKANGAEENSVDLEETEEEEDDGLIREKTTYDGKPALLFIVRVRGPLAVNIPNKAFKILSLLRLVETNTGVFVKLTKNVYPLLKVIAPYVVIGKPSLSSIRSLIQKRGRIIYKGENEAEPHEIVLNDNNIVEEQLGDHGIICVEDIIHEIATMGESFSVCNFFLQPFKLNREVSGFGSLNRLRKIKQREAESRTRQFSNAATAPVIEVDIDSLLAKLN
For the molecule B11, the binding entry was “binds”.
